{"source": "PubChem BioAssay AID504466", "about": "(National Center for Advancing Translational Sciences (NCATS), 2011)", "note": "Hit rate of the full screen: of about 330,000 compounds, about 4,200 (1.3%) were called active. About 6% were inconclusive and are not listed. The call rests on the fitted dose curve; in most records, active means well fitted activation curve with a large enough effect; inconclusive means small, poorly fitted or top-dose-only effect; inactive means no such curve, though single readings can be large or run the other way. Only a part is listed here, and it is no random draw. The source gives no active or inactive call for entries shown without one. Potency means the concentration at half of the fitted maximal effect."}
{"assay": "qHTS screen for small molecules that induce genotoxicity in human embryonic kidney (HEK293T) cells expressing luciferase-tagged ELG1; further: nearly all actives have a fitted effect of over 60% in size; on activity change, positive = activation: % of control where 0% means no effect", "settings": "HEK293T ELG1-luciferase reporter, luminescence, 16 h; activity change, positive = activation: at 46 µM (top of the series)", "method_in_brief": "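After overnight (16 hr) compound treatment at 37 °C, ELG1-luciferase HEK293T cells were lysed with ONE-Glo; luminescence quantified 30 min later at room temperature.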"}
{"smiles": "CCOc1cc(S(=O)(=O)n2cc(-c3ccc(F)cc3)c(N)n2)cc(OCC)c1OCC", "activity change, positive = activation": "inactive: -22%"}
{"smiles": "CSCC[C@H](NC(=O)OC(C)(C)C)C(=O)N1CCC(C(=O)N[C@@H](C)C(=O)NCc2ccc(F)cc2)CC1", "activity change, positive = activation": "10.9%"}
{"smiles": "O=C(O)c1cccc(COc2ccc(CO)cc2Cl)c1", "activity change, positive = activation": "-55.6%"}
{"smiles": "O=C1c2c(O)ccc(O)c2C(=O)c2c(NCCNCCO)ccc(NCCNCCO)c21", "activity change, positive = activation": "inactive: -58.8%"}
{"smiles": "CCOC(=O)c1cnc(Nc2nc3ccccc3o2)nc1C", "activity change, positive = activation": "-10.1%"}
{"smiles": "Cc1ccc(C)c(NC(=O)CN(C)C(=O)c2oc3c(Cl)cccc3c2C)c1", "activity change, positive = activation": "-9.52%"}
{"smiles": "COc1cccc(NC(=O)CSc2nnc(-c3ccc(C)cc3)o2)c1", "Potency": "active: 10.3 µM"}
{"smiles": "O=S1(=O)C=C(Sc2nc3ccccc3s2)c2ccccc21", "activity change, positive = activation": "inactive: -44.7%"}
{"smiles": "Cn1c(-c2ccc(F)cc2)cnc1NCc1ccccc1", "activity change, positive = activation": "29.6%"}
{"smiles": "CS(=O)(=O)c1cnc2c(-c3ccsc3)cnn2c1N", "Potency": "active: 20.6 µM"}
{"smiles": "O=C(Cn1c(=O)n(-c2ccc(F)cc2)c(=O)c2sccc21)c1ccccc1", "activity change, positive = activation": "3.03%"}
{"smiles": "Cc1nnc(NC(=O)c2ccc3ccccc3c2)s1", "Potency": "active: 4.61 µM"}
{"smiles": "O=c1nc(N/N=C/c2c[nH]c3ccccc23)cn[nH]1", "Potency": "active: 10.3 µM"}
{"smiles": "N/C(=N\\OC(=O)c1ccc(Cl)cc1)c1ccn[nH]1", "Potency": "active: 2.59 µM"}
{"smiles": "CCOc1cc(Br)c(CN2C(=O)NC3(CCCCCC3)C2=O)cc1OCC", "activity change, positive = activation": "inactive: -37.4%"}
{"smiles": "Cn1c(=O)c2c(ncn2CC(=O)N2CCN(c3ccccc3)CC2)n(C)c1=O", "activity change, positive = activation": "3.46%"}
{"smiles": "O=C(c1ccccc1)C1CCN(C(=O)c2c(F)cccc2F)CC1", "activity change, positive = activation": "0.0707%"}
{"smiles": "COc1ccc(OCc2cccc(C(=O)O)c2)cc1", "activity change, positive = activation": "-50.2%"}
{"smiles": "CC(C)C(C(=O)NCc1ccco1)N(C(=O)CNS(=O)(=O)c1ccccc1)C1CCCC1", "note": "(stereo not drawn)", "activity change, positive = activation": "51.6%"}
{"smiles": "CC1CN(c2ncnc3c2cnn3-c2ccc(Cl)cc2)CC(C)O1", "note": "(stereo not drawn)", "Potency": "active: 2.06 µM"}
{"smiles": "Cc1sc(NC(=O)c2ccco2)nc1-c1ccc2c(c1)CC(C)N2C(=O)C1CC1", "note": "(stereo not drawn)", "activity change, positive = activation": "inactive: -31.2%"}
{"smiles": "CCc1ccc(/C(C)=N/NC(=O)c2ccc(-n3cnnn3)cc2)cc1", "activity change, positive = activation": "18.5%"}
{"smiles": "COc1ccc(-c2nnn(CC(=O)N3CCOCC3)n2)cc1", "activity change, positive = activation": "39.1%"}
